Measurements as given in PMC7819943, “Rice protein-binding microarrays: a tool to detect cis-acting elements near promoter regions in rice”.
Some of the results follow.

What follows are sequences tested against T1, OsSMF1 (Oryza sativa, UniProt Q6ZLB0 1-436) (assay: protein-binding microarray (RPBM); PBS, 2% BSA, 51.3 ng/ul salmon testes DNA, 50 uM zinc acetate, 200 nM TF, 25 C, 1 h; high values mean tight binding). Settings: protein: recombinant; tags: N-terminal polyhistidine and DsRed monomer fusion (pET32a); chain copies: 2; label: CyDye5-dUTP incorporated in the synthesized complementary strand; 3' TTTTT single-stranded linker to array surface; dsDNA, one strand shown.
T1 sequence: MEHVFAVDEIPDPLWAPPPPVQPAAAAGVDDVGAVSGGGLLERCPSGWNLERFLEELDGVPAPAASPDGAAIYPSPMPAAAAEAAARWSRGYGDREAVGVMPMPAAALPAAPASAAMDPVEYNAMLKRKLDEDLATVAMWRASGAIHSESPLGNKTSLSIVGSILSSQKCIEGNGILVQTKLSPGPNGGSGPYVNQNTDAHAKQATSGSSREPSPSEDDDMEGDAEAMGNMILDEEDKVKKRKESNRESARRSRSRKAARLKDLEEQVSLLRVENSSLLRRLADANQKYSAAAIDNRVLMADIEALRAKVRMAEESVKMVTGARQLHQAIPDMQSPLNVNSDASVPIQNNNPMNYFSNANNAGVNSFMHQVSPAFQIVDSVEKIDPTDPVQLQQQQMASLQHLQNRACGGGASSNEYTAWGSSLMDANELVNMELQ
How it was run: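 Binding signal here means per-feature fluorescence intensity in arbitrary units. The values were read on an Axon 4000B scanner after a custom Agilent array, double-stranded by primer extension with Cy5-dUTP, was incubated with 200 nM protein at 25 °C for 1 h in PBS with 2% BSA, salmon testes DNA and 50 µM zinc acetate, then washed. The proteins were transcription factors with an N-terminal polyhistidine tag and DsRed, expressed in E. coli BL21-CodonPlus and purified on Ni–NTA.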
In the case of “GGCCGCTGTAGCGTGGGTGAGCGGGCCCGATCTGAGGTGGCGGAGTCACCTAGTGCAG”, the binding signal was 3650 fluorescence intensity (a.u.). With “TGGCACATTCTCATCGTATTTTCTTGTTGCTCTATGTATGCGGAGTCACCTAGTGCAG” the binding signal was 3180 fluorescence intensity (a.u.). “TTGACACTTATGCCCCTGCCACCTCACTGCAACCATGGTGCGGAGTCACCTAGTGCAG” was tested, and the binding signal was 6340 fluorescence intensity (a.u.). With “CGCCTTCCTCCCCACATCACCGCGGCTGCGCCCCAGTCCCCGGAGTCACCTAGTGCAG” the binding signal was 4020 fluorescence intensity (a.u.). For “ATTCGGATTATTGAATCAGTGTATCAGCACACAACACAACCGGAGTCACCTAGTGCAG”, the binding signal was 36500 fluorescence intensity (a.u.). With “AGCCCTATTACTAGAGGGCGCGTGTCAGCCAGATCAGCACCGGAGTCACCTAGTGCAG” the binding signal was 6900 fluorescence intensity (a.u.). In the case of “TTAATCTTATAATTACGGTCATGTGGTTTTGTGAAATTTACGGAGTCACCTAGTGCAG”, the binding signal was 5500 fluorescence intensity (a.u.). “TGCTTGCTCGCACGCTTGCTGCTGACTAGTAGCTCGCTAGCGGAGTCACCTAGTGCAG” was tested, and the binding signal was 4850 fluorescence intensity (a.u.). In the case of “TATGTGCAAATCAGATAATTCCGCGGTAACAAAGTCAGCGCGGAGTCACCTAGTGCAG”, the binding signal was 3710 fluorescence intensity (a.u.). In the case of “CTAAGGCTTACAATGAATTGAAAGAATTCATAAATTTAATCGGAGTCACCTAGTGCAG”, the binding signal was 3450 fluorescence intensity (a.u.). In the case of “CCTCTGTCCTGTGGGCTCCCACCATTCTTGCTGCATGCTGCGGAGTCACCTAGTGCAG”, the binding signal was 3930 fluorescence intensity (a.u.). With “CTCCTTTCTTCCTCCTCTGCAAGCCGCCGACGAGGCAAGCCGGAGTCACCTAGTGCAG” the binding signal was 3790 fluorescence intensity (a.u.). For “TTCGTAGGATACTATCAAAATCAAGTAAGCTATCTATGATCGGAGTCACCTAGTGCAG”, the binding signal was 3140 fluorescence intensity (a.u.). “AACTTCAGGGCGTGACACCACTCCACCTCTTAAATTAAAGCGGAGTCACCTAGTGCAG” was tested, and the binding signal was 4140 fluorescence intensity (a.u.). For “AGTTGTGATGTCGCCACGTTGGCGGCCGGCGACTGCGCCACGGAGTCACCTAGTGCAG”, the binding signal was 12000 fluorescence intensity (a.u.). “GCTTGGCGTTCCCGTGGATGACGTCCGCGACGGCCTGGATCGGAGTCACCTAGTGCAG” was tested, and the binding signal was 4620 fluorescence intensity (a.u.). In the case of “ATAAATGACCTAGCACTTCCCAACTCACTTATTTCTATTGCGGAGTCACCTAGTGCAG”, the binding signal was 3440 fluorescence intensity (a.u.). For “TATATCCGTCACACGTGTGCGCCTCCCACCCATCCACCACCGGAGTCACCTAGTGCAG”, the binding signal was 8250 fluorescence intensity (a.u.). “TCAAACAAGAGTTCACCAAACCGCCCATGCGGCCATGCTGCGGAGTCACCTAGTGCAG” was tested, and the binding signal was 17100 fluorescence intensity (a.u.). For “CTTGACTACGAAATGTATTCGCTTGCTGACGACGTCTGCTCGGAGTCACCTAGTGCAG”, the binding signal was 5800 fluorescence intensity (a.u.). With “ATTTACCACTGGACCTATGTATTATAGACACGTGAGGTCCCGGAGTCACCTAGTGCAG” the binding signal was 3270 fluorescence intensity (a.u.). For “GTAGTTAGTTAGGTTGTTAGTCGTGTGAGCTGCATGTATACGGAGTCACCTAGTGCAG”, the binding signal was 3320 fluorescence intensity (a.u.). For “TTCGGTGGTCACTCGTCAGTCGTGTCGTCTGCTCACGCTCCGGAGTCACCTAGTGCAG”, the binding signal was 4380 fluorescence intensity (a.u.). For “ATAAAATCATGATACTCGGGATTTATGCGTCACTTGTGGCCGGAGTCACCTAGTGCAG”, the binding signal was 4770 fluorescence intensity (a.u.). “CTACATTGGCACTCGTTTTCAGGATGGCGATGGCATCAATCGGAGTCACCTAGTGCAG” was tested, and the binding signal was 17400 fluorescence intensity (a.u.). For “TGGGAATTTTGCATGCGCGGCACGCTGATCACTTGCCAGTCGGAGTCACCTAGTGCAG”, the binding signal was 3250 fluorescence intensity (a.u.). For “TCGTCGACGCCGGCGTCACCACCATCCCCTACTTCTTCCGCGGAGTCACCTAGTGCAG”, the binding signal was 5250 fluorescence intensity (a.u.). With “TTTAATCTGCAGATTGTCCTGGTTCATCAGTATTGCTGTACGGAGTCACCTAGTGCAG” the binding signal was 20400 fluorescence intensity (a.u.). In the case of “GCGGCGGCCGGATCCGGCGAGCTTGCGGCGCCAGGCTAGGCGGAGTCACCTAGTGCAG”, the binding signal was 21700 fluorescence intensity (a.u.). “ATTCTAATGACACCTAAGTGCCACGTCAACGCCACGTGGACGGAGTCACCTAGTGCAG” was tested, and the binding signal was 45100 fluorescence intensity (a.u.). “GCCCGCGCTGTGAGCGTCTAATGCACACCTTCACTCCGTGCGGAGTCACCTAGTGCAG” was tested, and the binding signal was 4800 fluorescence intensity (a.u.). “ATTTTGTTAGTATCATAGTGCTAGTATCATCATTTTGCTGCGGAGTCACCTAGTGCAG” was tested, and the binding signal was 3820 fluorescence intensity (a.u.). With “TAAATGTCAGCTGATGCCAATAGTTTCTGTGCTGCTGCCACGGAGTCACCTAGTGCAG” the binding signal was 27600 fluorescence intensity (a.u.). “ACCCACACACCCACACCCACACGTCAAAGACCCACGGTTTCGGAGTCACCTAGTGCAG” was tested, and the binding signal was 3160 fluorescence intensity (a.u.). “TCTATCGATTTCTCCCTTCCTTCTCTTTCTTCTTTCTTTCCGGAGTCACCTAGTGCAG” was tested, and the binding signal was 21800 fluorescence intensity (a.u.). For “GAAGACTACAAACGCGCTGCGAAAGACGTGGCTCCGTTTTCGGAGTCACCTAGTGCAG”, the binding signal was 4120 fluorescence intensity (a.u.). “CGGGCTCCGCGCCGACATGGACGCGCTCCCCATCCAGGTCCGGAGTCACCTAGTGCAG” was tested, and the binding signal was 30700 fluorescence intensity (a.u.). In the case of “AAGTCGGCAAATGCAGGGGTCCCTTCCGTTACCTCTGCGACGGAGTCACCTAGTGCAG”, the binding signal was 3840 fluorescence intensity (a.u.). “CTCCCGGTCCCATGTCACCGACACCGTTGTCGCCCGGTTCCGGAGTCACCTAGTGCAG” was tested, and the binding signal was 4890 fluorescence intensity (a.u.). For “CACCATGCTCAAGCCACAATTGATAATTTTGTTGGCAGAGCGGAGTCACCTAGTGCAG”, the binding signal was 38600 fluorescence intensity (a.u.). With “GTTCCCTCCACGTGGGCCATGCTTCCCTGCTTTCTACTTCCGGAGTCACCTAGTGCAG” the binding signal was 17400 fluorescence intensity (a.u.). For “TGGCTGCCTATATGTAGAGCCCAACACCATGCAAAATGCACGGAGTCACCTAGTGCAG”, the binding signal was 14600 fluorescence intensity (a.u.).
